No constants are given. Whether binding was seen depends on the method and setting. Binding seen in cells or lysates may run through a third protein. Some binding calls cover weakened binding; strength is not graded here.
Legend:
[1] = target: phosphorylated MED1 (Mediator complex subunit 1), endogenous (human (endogenous in LNCaP and M12)) (UniProt Q15648); test: co-IP; anti-p-MED1 IP from lysates of the cumate-inducible LNCaP-AR^v567es stable line; protein A/G beads; Western blot
[2] = target: phosphorylated MED1 (Mediator complex subunit 1), endogenous (human (endogenous in LNCaP and M12)) (UniProt Q15648); test: co-IP; anti-p-MED1 IP from lysates of the cumate-inducible AR-null M12-AR^v567es stable line; protein A/G beads; Western blot

Amino acid sequences for entries named in this document (tags omitted).
UniProt Q15648: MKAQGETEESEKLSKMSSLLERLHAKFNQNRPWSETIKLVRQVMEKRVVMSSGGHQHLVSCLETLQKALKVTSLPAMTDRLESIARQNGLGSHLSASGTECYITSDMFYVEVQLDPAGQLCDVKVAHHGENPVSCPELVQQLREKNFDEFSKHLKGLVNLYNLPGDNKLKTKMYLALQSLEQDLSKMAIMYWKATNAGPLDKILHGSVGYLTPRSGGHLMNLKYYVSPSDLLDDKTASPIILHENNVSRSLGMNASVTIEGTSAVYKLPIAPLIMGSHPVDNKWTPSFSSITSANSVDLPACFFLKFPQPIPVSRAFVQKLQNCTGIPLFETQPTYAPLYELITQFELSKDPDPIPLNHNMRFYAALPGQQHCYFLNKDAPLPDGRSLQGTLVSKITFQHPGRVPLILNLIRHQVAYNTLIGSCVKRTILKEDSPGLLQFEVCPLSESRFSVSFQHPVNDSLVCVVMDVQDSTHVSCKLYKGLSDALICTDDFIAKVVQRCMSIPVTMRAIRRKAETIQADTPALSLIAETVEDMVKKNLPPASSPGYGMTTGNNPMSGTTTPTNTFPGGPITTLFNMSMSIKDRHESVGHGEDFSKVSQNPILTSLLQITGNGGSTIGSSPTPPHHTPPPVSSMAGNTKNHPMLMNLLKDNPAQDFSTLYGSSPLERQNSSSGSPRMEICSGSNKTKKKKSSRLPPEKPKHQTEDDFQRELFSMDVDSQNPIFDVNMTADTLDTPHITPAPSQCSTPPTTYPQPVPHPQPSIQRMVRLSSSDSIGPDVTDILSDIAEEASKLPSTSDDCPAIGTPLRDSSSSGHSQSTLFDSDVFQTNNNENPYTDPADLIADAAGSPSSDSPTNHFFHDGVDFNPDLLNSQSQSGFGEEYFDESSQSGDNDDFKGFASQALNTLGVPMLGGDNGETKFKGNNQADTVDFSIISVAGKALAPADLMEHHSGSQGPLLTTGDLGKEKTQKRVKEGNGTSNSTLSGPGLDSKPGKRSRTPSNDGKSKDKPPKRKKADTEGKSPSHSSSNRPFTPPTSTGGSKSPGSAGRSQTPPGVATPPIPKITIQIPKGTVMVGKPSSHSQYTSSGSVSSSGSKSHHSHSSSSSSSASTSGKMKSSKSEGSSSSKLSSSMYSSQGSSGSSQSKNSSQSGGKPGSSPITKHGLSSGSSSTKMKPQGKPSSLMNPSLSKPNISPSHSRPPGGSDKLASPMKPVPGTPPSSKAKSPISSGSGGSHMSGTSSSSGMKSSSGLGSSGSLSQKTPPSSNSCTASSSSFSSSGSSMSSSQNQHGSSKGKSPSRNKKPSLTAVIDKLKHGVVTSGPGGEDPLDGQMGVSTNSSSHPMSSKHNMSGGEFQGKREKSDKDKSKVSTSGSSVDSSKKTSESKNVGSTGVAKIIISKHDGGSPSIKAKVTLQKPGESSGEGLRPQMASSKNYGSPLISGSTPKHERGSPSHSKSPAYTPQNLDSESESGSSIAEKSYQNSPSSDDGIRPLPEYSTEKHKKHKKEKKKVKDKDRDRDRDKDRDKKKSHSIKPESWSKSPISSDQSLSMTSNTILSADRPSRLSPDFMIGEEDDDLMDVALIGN

B1: FoxA1, endogenous (protein, UniProt P55317 1-472)
chain: MLGTVKMEGHETSDWNSYYADTQEAYSSVPVSNMNSGLGSMNSMNTYMTMNTMTTSGNMTPASFNMSYANPGLGAGLSPGAVAGMPGGSAGAMNSMTAAGVTAMGTALSPSGMGAMGAQQAASMNGLGPYAAAMNPCMSPMAYAPSNLGRSRAGGGGDAKTFKRSYPHAKPPYSYISLITMAIQQAPSKMLTLSEIYQWIMDLFPYYRQNQQRWQNSIRHSLSFNDCFVKVARSPDKPGKGSYWTLHPDSGNMFENGCYLRRQKRFKCEKQPGAGGGGGSGSGGSGAKGGPESRKDPSGASNPSADSPLHRGVHGKTGQLEGAPAPGPAASPQTLDHSGATATGGASELKTPASSTAPPISSGPGALASVPASHPAHGLAPHESQLHLKGDPHYSFNHPFSINNLMSSSEQQHKLDFKAYEQALQYSPYGSTLPASLPLGSASVTTRSPIEPSALEPAYYQGVYSRPVLNTS
What does the source list for B1?
binding [1]: binds; binding [2]: binds
